Test results: paper PMC8013792, “Bacterial protein domains with a novel Ig‐like fold target human CEACAM receptors” (The EMBO Journal, 2021)
No constants are given. Whether binding was seen depends on the method and setting. Some entries that bind do so weakly or less than the wild type.

The chains behind the UniProt entries cited, without tags or fusion partners. A line that says so, or that is headed by a name, gives the form on record, which may keep a tag or linker. Residues count along the entry.
UniProt Q02192, residues 42-990: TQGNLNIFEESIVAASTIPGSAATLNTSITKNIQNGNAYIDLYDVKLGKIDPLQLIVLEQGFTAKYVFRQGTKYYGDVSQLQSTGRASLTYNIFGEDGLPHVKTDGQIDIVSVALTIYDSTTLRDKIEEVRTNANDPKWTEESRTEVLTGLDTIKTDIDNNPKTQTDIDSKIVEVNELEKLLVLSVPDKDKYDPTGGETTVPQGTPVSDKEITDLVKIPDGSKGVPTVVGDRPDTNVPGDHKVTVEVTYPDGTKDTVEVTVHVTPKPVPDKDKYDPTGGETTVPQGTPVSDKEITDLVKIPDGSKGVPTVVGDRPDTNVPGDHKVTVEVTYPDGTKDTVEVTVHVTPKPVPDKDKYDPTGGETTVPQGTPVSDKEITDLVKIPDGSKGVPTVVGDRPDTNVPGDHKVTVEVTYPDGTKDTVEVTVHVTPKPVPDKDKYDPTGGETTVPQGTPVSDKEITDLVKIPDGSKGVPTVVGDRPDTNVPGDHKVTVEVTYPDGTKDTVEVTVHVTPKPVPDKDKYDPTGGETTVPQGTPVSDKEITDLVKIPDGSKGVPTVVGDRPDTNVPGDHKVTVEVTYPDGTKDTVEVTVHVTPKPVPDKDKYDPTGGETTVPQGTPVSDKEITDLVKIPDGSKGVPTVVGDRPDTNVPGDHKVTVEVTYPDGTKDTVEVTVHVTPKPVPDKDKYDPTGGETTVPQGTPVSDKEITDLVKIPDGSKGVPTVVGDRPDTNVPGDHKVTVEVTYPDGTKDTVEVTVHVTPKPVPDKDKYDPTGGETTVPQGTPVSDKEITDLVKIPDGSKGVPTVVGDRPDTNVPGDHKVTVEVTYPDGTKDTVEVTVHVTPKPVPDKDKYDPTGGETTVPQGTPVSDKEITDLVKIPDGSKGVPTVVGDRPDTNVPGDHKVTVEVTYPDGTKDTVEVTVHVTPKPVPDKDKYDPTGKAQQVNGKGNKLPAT
tag-less unglycosylated CEACAM1 N-terminal domain (rCEACAM1-N, pET21d) (P13688, residues 34-141): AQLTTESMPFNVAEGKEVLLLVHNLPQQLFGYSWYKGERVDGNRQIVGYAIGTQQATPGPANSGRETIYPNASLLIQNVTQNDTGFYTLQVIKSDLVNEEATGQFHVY
glycosylated recombinant CEACAM1 extracellular domain (rCEACAM1-His) (P13688, residues 35-428): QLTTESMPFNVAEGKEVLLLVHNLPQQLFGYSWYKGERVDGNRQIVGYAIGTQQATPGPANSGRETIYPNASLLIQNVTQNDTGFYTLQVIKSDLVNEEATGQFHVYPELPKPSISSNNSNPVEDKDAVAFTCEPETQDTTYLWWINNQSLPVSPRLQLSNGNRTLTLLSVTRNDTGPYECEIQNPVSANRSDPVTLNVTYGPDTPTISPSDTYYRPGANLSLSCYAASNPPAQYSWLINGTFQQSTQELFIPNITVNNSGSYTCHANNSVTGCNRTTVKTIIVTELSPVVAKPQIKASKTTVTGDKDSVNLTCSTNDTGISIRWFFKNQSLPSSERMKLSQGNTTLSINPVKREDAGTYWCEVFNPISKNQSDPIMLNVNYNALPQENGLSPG

How the values were obtained:
[1] = target: β-IgI3 domain of GBS β protein, tag removed with carboxypeptidase A (crystallised form) (Streptococcus agalactiae (GBS)); test: crystal structure; (β-IgI3)-(CEACAM1-N) complex, 3.25 Å, 1.8 M ammonium sulphate, 0.1 M sodium citrate pH 5.5; contacts by NCONT (CCP4), cut-off 4.0 Å; both purified
[2] = target: α protein of group B Streptococcus, purified from GBS cultures (Streptococcus agalactiae (GBS)) (UniProt Q02192); test: condition: 30 μg/ml (legend; the methods say 10 μg/ml); far-Western, overlay or dot blot; purified GBS proteins separated by non-reducing SDS-PAGE, blotted, probed with rCEACAM1-His at 4°C; both purified
[3] = target: glycosylated recombinant CEACAM1 extracellular domain (rCEACAM1-His) (human) (UniProt P13688); test: flow cytometry of coated dynabeads; rCEACAM1-His on nickel dynabeads, pre-incubated with rHopQ 1 h at 4 °C; β-IgSF-biotin coupled to streptavidin-PE (tetramers, 3 µg/mL); PBS + 0.1% BSA; both purified

tag-less unglycosylated CEACAM1 N-terminal domain (rCEACAM1-N, pET21d) (from UniProt P13688 34-141) (domain or fragment)
binding [1]: binds

recombinant human CEACAM1, extracellular domain, 6xHis tagged, glycosylated (from UniProt P13688 35-428) (receptor)
binding [2]: no binding

B1: biotinylated β-IgSF domain of GBS β protein (β-IgSF-biotin) (domain or fragment)
chain: ANENNQQKIELTVSPENITVYEGEDVKFTVTAKSDSKTTLDFSDLLTKYNPSVSDRISTNYKTNTDNHKIAEITIKNLKLNESQTVTLKAKDDSGNVVEKTFTITVQKKEEKQ
modifications: biotin, C-terminal
binding [3]: binds
